The text below walks through data of article PMC2998423.

For this test, the target named is T1, Human ABCG2 (human), Q9UNQ0.
T1 chain: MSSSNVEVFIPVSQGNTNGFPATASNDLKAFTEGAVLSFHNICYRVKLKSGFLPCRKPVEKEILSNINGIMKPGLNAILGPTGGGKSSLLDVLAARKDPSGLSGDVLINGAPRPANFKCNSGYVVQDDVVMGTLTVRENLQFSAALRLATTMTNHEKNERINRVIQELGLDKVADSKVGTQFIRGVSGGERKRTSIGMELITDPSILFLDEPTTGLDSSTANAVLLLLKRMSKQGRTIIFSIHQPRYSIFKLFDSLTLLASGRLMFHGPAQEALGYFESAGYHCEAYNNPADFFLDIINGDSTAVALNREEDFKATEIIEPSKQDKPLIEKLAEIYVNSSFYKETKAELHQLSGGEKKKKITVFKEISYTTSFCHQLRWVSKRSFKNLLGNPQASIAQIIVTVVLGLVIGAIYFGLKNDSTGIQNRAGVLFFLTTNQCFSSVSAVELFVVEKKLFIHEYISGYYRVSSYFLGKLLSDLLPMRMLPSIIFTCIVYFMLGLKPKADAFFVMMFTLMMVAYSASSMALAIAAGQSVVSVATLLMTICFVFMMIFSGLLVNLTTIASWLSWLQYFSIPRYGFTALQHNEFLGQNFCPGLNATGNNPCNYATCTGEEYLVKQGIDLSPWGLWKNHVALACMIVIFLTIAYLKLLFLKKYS
The test can be described thus: co-IP; HEK293 cells co-transfected with Myc- and HA-tagged ABCG2; exposed to 3.3 µM PZ-34, PZ-38 or DMSO control for 6 hrs; lysates immunoprecipitated with anti-Myc or anti-HA monoclonal antibody, Western blot probed with anti-HA and anti-Myc. Conditions: remark: other sources report otherwise. (Immunoblotting shows a protein as a band on a membrane.)

No constants are given. Whether binding was seen depends on the method and setting. In cells and extracts the contact can be indirect. Some binding calls cover weakened binding; strength is not graded here.

B1: Human ABCG2, Q9UNQ0 1-655 (protein)
chain: T1 chain
On to B1, for which the binding result is reported as “binds”.
